Results: article PMC9307954
These are yes or no findings as the source states them, for the method shown. In cells and extracts the contact can be indirect. Some binding calls cover weakened binding; strength is not graded here. Where a sequence is shown, tags or fusion partners need not be part of it.

Biological target: T1, GST-PLEKHA7 WW-PH (amino acids 1–284) (UniProt Q6IQ23)
T1 sequence: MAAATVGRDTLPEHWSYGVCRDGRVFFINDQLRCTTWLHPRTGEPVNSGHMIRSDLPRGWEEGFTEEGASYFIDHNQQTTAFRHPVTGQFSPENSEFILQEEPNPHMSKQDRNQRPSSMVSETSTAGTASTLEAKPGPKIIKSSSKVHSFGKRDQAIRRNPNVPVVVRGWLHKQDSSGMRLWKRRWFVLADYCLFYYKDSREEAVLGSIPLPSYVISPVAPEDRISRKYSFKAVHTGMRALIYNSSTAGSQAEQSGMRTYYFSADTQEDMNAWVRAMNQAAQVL
Test: pull-down; 5 ug GST-fusion bait coupled to glutathione magnetic agarose beads, overnight at 4 °C with normalized HEK293T lysates of preys, without or with increasing amounts of an HA-tagged additional (third) protein; lysis buffer NaCl 150 mM, Tris-HCl 20 mM pH 7.5, Nonidet P-40 1%, EDTA 1 mM; immunoblot with anti-GFP; only the target purified

binding: binds
B1: PDZD11-HA (protein, UniProt Q5EBL8 1-140)
chain: MDSRIPYDDYPVVFLPAYENPPAWIPPHERVHHPDYNNELTQFLPRTITLKKPPGAQLGFNIRGGKASQLGIFISKVIPDSDAHRAGLQEGDQVLAVNDVDFQDIEHSKAVEILKTAREISMRVRFFPYNYHRQKERTVH
